Experimental data published in the supplement of paper PMC7238544.
Where a name gives a salt, the structure may show the parent alone. ± gives the standard deviation of the averaged measurements. The list shows a part of the results. The data scatter; read single values as rough.

Assays:
[1] = tested on: hAMSC donor 1; assay: transgenic luciferase activity (RLU/mg protein) fold change vs vehicle control (ratio); higher = more transgene expression
[2] = tested on: hAMSC donor 2; assay: as above
[3] = tested on: hAMSC donor 1; assay: transfection efficiency (EGFP+ cells / Hoechst count) fold change vs vehicle control (ratio); higher = enhanced transfection
[4] = tested on: hAMSC donor 2; assay: as above
[5] = tested on: hAMSC donor 1; assay: Hoechst total cell count ratio vs vehicle control; hAMSC are human adipose-derived mesenchymal stem cells given an EGFP-luciferase plasmid by lipofection; higher = more cells (less toxicity)
[6] = tested on: hAMSC donor 2; assay: as above
[7] = priming compound concentration 1.7 µM
[8] = priming compound concentration 13 µM
[9] = priming compound concentration 0.2 µM

Row | Compound | transgenic luciferase activity [1, 7] | transgenic luciferase activity [1, 8] | transgenic luciferase activity [2, 7] | transgenic luciferase activity [2, 8] | transfection efficiency [3, 9] | transfection efficiency [3, 7] | transfection efficiency [3, 8] | transfection efficiency [4, 9] | transfection efficiency [4, 7] | transfection efficiency [4, 8] | Hoechst total cell count ratio [5, 9] | Hoechst total cell count ratio [5, 7] | Hoechst total cell count ratio [5, 8] | Hoechst total cell count ratio [6, 9] | Hoechst total cell count ratio [6, 7] | Hoechst total cell count ratio [6, 8] | transgenic luciferase activity [2, 9] | transgenic luciferase activity [1, 9]
1 | COc1ccc(CCN(C)CCCC(C#N)(c2ccc(OC)c(OC)c2)C(C)C)cc1OC (configuration not stated) [Verapamil hydrochloride] | 0.259 ± 0.094 | 0.679 ± 0.11 | 0.858 ± 0.066 | 0.641 ± 0.15 | 1.3 ± 0.82 | 1.14 ± 0.51 | 1.41 ± 0.062 | 0.951 ± 0.15 | 0.798 ± 0.17 | 0.818 ± 0.28 |  |  |  |  |  |  |  | 
2 | CC(C)NCC(O)COc1cccc2[nH]ccc12 (configuration not stated) [Pindolol] |  | 0.952 ± 0.6 | 0.826 ± 0.088 | 0.643 ± 0.18 | 1.24 ± 0.46 | 1.43 ± 0.085 | 0.965 ± 0.098 | 0.903 ± 0.073 | 1.09 ± 0.14 | 1 ± 0.14 | 1.08 ± 0.11 | 1.45 ± 0.13 | 1.41 ± 0.27 | 1.09 ± 0.12 | 1.18 ± 0.14 | 0.999 ± 0.21 | 0.742 ± 0.1 | 
3 | COC(=O)Nc1nc2cc(C(=O)c3ccccc3)ccc2[nH]1 [Mebendazole] | 0.768 ± 0.13 |  | 1.04 ± 0.75 | 0.58 ± 0.31 | 1.03 ± 0.14 | 1.41 ± 0.054 | 0.989 ± 0.14 | 1.25 ± 0.21 | 1.13 ± 0.41 | 0.954 ± 0.21 | 1.13 ± 0.18 | 1.23 ± 0.23 | 1.14 ± 0.1 | 0.991 ± 0.064 | 0.753 ± 0.19 | 0.666 ± 0.12 |  | 0.591 ± 0.15
4 | CC(=O)S[C@@H]1CC2=CC(=O)CC[C@]2(C)[C@H]2CC[C@@]3(C)[C@@H](CC[C@@]34CCC(=O)O4)[C@H]12 [Spironolactone] | 0.55 ± 0.62 |  | 1.4 ± 0.43 | 0.668 ± 0.17 | 1.34 ± 0.1 | 0.885 ± 0.17 | 0.833 ± 0.2 | 1.05 ± 0.21 | 1.26 ± 0.25 | 0.869 ± 0.21 | 1.09 ± 0.06 | 1.36 ± 0.23 | 1.38 ± 0.3 | 1.08 ± 0.18 | 0.792 ± 0.057 | 0.766 ± 0.023 |  | 0.546 ± 0.13
5 | CCn1cc(C(=O)O)c(=O)c2ccc(C)nc21 [Nalidixic acid] | 1.24 ± 0.24 |  | 1.05 ± 0.085 | 0.571 ± 0.12 | 0.935 ± 0.12 | 1.49 ± 0.53 | 0.914 ± 0.11 | 1.15 ± 0.41 | 1.23 ± 0.061 | 0.924 ± 0.034 | 0.97 ± 0.17 | 0.948 ± 0.14 | 1.09 ± 0.27 | 1.06 ± 0.057 | 1.06 ± 0.2 | 1.29 ± 0.16 |  | 0.769 ± 0.59
6 | C[C@H]1C[C@@H]2[C@H]([C@@H](O)C[C@@]3(C)[C@H]2CC[C@]3(O)C(=O)CO)[C@@]2(C)C=CC(=O)C=C12 [Methylprednisolone] | 3.89 ± 1.9 | 8.92 ± 0.29 | 2.43 ± 0.18 | 1.92 ± 0.33 | 1.75 ± 0.85 | 2.22 ± 0.15 | 2.46 ± 0.8 | 1.49 ± 0.34 | 1.84 ± 0.2 | 1.86 ± 0.21 | 1.57 ± 0.27 | 1.68 ± 0.034 | 1.24 ± 0.1 | 1.11 ± 0.34 | 1.32 ± 0.17 | 1.38 ± 0.15 |  | 
7 | CNC(=C[N+](=O)[O-])NCCSCc1ccc(CN(C)C)o1 [Ranitidine hydrochloride] |  | 6.23 ± 1.7 | 0.522 ± 0.058 |  | 1.38 ± 0.24 | 1.08 ± 0.14 | 1.63 ± 0.3 | 0.734 ± 0.024 | 1.48 ± 0.12 | 1.1 ± 0.17 | 1.14 ± 0.07 | 1.39 ± 0.24 | 1.3 ± 0.028 | 1.16 ± 0.1 | 0.802 ± 0.2 | 1.2 ± 0.21 | 0.718 ± 0.29 | 0.462 ± 0.23
8 | CN/C(=N\CCSCc1nc[nH]c1C)NC#N [Cimetidine] |  | 9.9 ± 1.6 | 0.376 ± 0.051 |  | 1.23 ± 0.45 | 1.14 ± 0.14 | 1.52 ± 0.45 | 0.885 ± 0.045 | 1.67 ± 0.32 | 1.15 ± 0.2 | 1.16 ± 0.078 | 1.33 ± 0.25 | 1.35 ± 0.21 | 1.29 ± 0.09 | 0.772 ± 0.042 | 1.08 ± 0.16 | 0.766 ± 0.071 | 0.385 ± 0.26
9 | OCCN1C[C@H](O)[C@@H](O)[C@H](O)[C@H]1CO [Miglitol] | 0.888 ± 0.63 | 0.984 ± 0.29 | 0.676 ± 0.086 | 0.46 ± 0.31 | 1.44 ± 0.29 | 1.42 ± 0.24 | 1.39 ± 0.32 | 1.04 ± 0.34 | 1.01 ± 0.077 | 0.9 ± 0.12 | 1.01 ± 0.1 | 1.03 ± 0.11 | 1.03 ± 0.066 | 1.38 ± 0.14 | 1.25 ± 0.17 | 1.28 ± 0.26 |  | 
10 | Oc1c(Cl)cc(Cl)c(Cl)c1Cc1c(O)c(Cl)cc(Cl)c1Cl [Hexachlorophene] |  | 0.3 ± 0.13 | 0.49 ± 0.16 | 0.537 ± 0.15 | 0.743 ± 0.026 | 1.14 ± 0.11 | 0.694 ± 0.44 | 0.972 ± 0.16 | 0.97 ± 0.13 | 0.438 ± 0.046 | 1.35 ± 0.014 | 1.35 ± 0.16 | 1.32 ± 0.12 | 1.07 ± 0.19 | 0.934 ± 0.044 | 1.5 ± 0.18 | 0.754 ± 0.12 | 
11 | COC1=C(OC)C(=O)C(CCCCCCCCCCO)=C(C)C1=O [Idebenone] | 0.163 ± 0.065 | 0.788 ± 0.2 | 0.627 ± 0.024 | 0.552 ± 0.21 | 1.46 ± 0.61 | 1.36 ± 0.39 | 1.22 ± 0.2 | 1.25 ± 0.039 | 0.933 ± 0.16 | 1.17 ± 0.28 | 1.08 ± 0.14 | 0.779 ± 0.11 | 0.988 ± 0.2 | 0.875 ± 0.31 | 0.676 ± 0.038 | 1.42 ± 0.1 |  | 
12 | Cc1noc(NS(=O)(=O)c2ccc(N)cc2)c1C [Sulfisoxazole] | 2.78 ± 1.2 |  | 0.345 ± 0.065 | 0.167 ± 0.0091 | 1.11 ± 0.26 | 1.67 ± 0.48 | 1.05 ± 0.36 | 1.26 ± 0.44 | 0.905 ± 0.036 | 1.15 ± 0.43 | 1.18 ± 0.23 | 1.16 ± 0.16 | 1.13 ± 0.31 | 1.18 ± 0.3 | 1.37 ± 0.05 | 1.66 ± 0.51 | 0.529 ± 0.12 | 
13 | CCN(CC)CCNC(=O)c1cc(Cl)c(N)cc1OC [Metoclopramide hydrochloride] |  | 7.01 ± 1.7 | 0.418 ± 0.014 |  | 1.19 ± 0.46 | 1.01 ± 0.18 | 1.31 ± 0.03 | 0.912 ± 0.15 | 1.43 ± 0.13 | 1.24 ± 0.12 | 1.37 ± 0.15 | 1.41 ± 0.1 | 1.29 ± 0.031 | 1.2 ± 0.21 | 0.875 ± 0.061 | 0.866 ± 0.17 | 0.836 ± 0.17 | 0.582 ± 0.15
14 | CN1CCN(C2=Nc3cc(Cl)ccc3Nc3ccccc32)CC1 [Clozapine] |  | 1.02 ± 0.75 | 0.335 ± 0.14 |  | 1.39 ± 0.081 | 1.05 ± 0.15 | 0.966 ± 0.15 | 0.889 ± 0.17 | 0.983 ± 0.014 | 0.724 ± 0.15 |  |  |  |  |  |  | 0.65 ± 0.092 | 1.72 ± 1.3

Arranged by number of heavy atoms (smallest number first): three of the compounds above.
Row | Compound | transgenic luciferase activity [1, 7] | transgenic luciferase activity [1, 8] | transgenic luciferase activity [2, 7] | transgenic luciferase activity [2, 8] | transfection efficiency [3, 9] | transfection efficiency [3, 7] | transfection efficiency [3, 8] | transfection efficiency [4, 9] | transfection efficiency [4, 7] | transfection efficiency [4, 8] | Hoechst total cell count ratio [5, 9] | Hoechst total cell count ratio [5, 7] | Hoechst total cell count ratio [5, 8] | Hoechst total cell count ratio [6, 9] | Hoechst total cell count ratio [6, 7] | Hoechst total cell count ratio [6, 8] | transgenic luciferase activity [2, 9] | transgenic luciferase activity [1, 9]
3 | COC(=O)Nc1nc2cc(C(=O)c3ccccc3)ccc2[nH]1 [Mebendazole] | 0.768 ± 0.13 |  | 1.04 ± 0.75 | 0.58 ± 0.31 | 1.03 ± 0.14 | 1.41 ± 0.054 | 0.989 ± 0.14 | 1.25 ± 0.21 | 1.13 ± 0.41 | 0.954 ± 0.21 | 1.13 ± 0.18 | 1.23 ± 0.23 | 1.14 ± 0.1 | 0.991 ± 0.064 | 0.753 ± 0.19 | 0.666 ± 0.12 |  | 0.591 ± 0.15
6 | C[C@H]1C[C@@H]2[C@H]([C@@H](O)C[C@@]3(C)[C@H]2CC[C@]3(O)C(=O)CO)[C@@]2(C)C=CC(=O)C=C12 [Methylprednisolone] | 3.89 ± 1.9 | 8.92 ± 0.29 | 2.43 ± 0.18 | 1.92 ± 0.33 | 1.75 ± 0.85 | 2.22 ± 0.15 | 2.46 ± 0.8 | 1.49 ± 0.34 | 1.84 ± 0.2 | 1.86 ± 0.21 | 1.57 ± 0.27 | 1.68 ± 0.034 | 1.24 ± 0.1 | 1.11 ± 0.34 | 1.32 ± 0.17 | 1.38 ± 0.15 |  | 
4 | CC(=O)S[C@@H]1CC2=CC(=O)CC[C@]2(C)[C@H]2CC[C@@]3(C)[C@@H](CC[C@@]34CCC(=O)O4)[C@H]12 [Spironolactone] | 0.55 ± 0.62 |  | 1.4 ± 0.43 | 0.668 ± 0.17 | 1.34 ± 0.1 | 0.885 ± 0.17 | 0.833 ± 0.2 | 1.05 ± 0.21 | 1.26 ± 0.25 | 0.869 ± 0.21 | 1.09 ± 0.06 | 1.36 ± 0.23 | 1.38 ± 0.3 | 1.08 ± 0.18 | 0.792 ± 0.057 | 0.766 ± 0.023 |  | 0.546 ± 0.13
